Reference: US4025649A, “Acetic acid derivatives having pharmacological activity and compositions containing the same” (priority 1975, dated 1977)

Tests used:
[1] = tested on: γ-aminobutyric α-ketoglutaric transaminase (GABA T); experiment: Inhibition of GABA T in vitro (coupled spectrophotometric test with GABASE); type: biochemical, Pseudomonas fluorescens; details: comparison of Ki with sodium di-n-propylacetate (0.8 m mol/ml)
Experimental: This test was undertaken "in vitro" in the absorption cell of a double-beam U.V. spectrophotometer.
The activity of GABA T was determined by coupling this enzyme with an excess of succinosemialdehyde dehydrogenase (NADP^+) so that the rate of formation of the succinosemialdehyde dehydrogenase coenzyme (NADPH) was limited by the activity of the GABA T. The coupling of the two reactions was as follows:
The activity of GABA T was measured by following the reduction rate (v) of NADP^+ which corresponds to the evolution of the optical density at 340 mμ on the spectrophotometer.
Determination of the activity rate of GABA T by the principle hereabove described can be effected with either limiting concentrations or a saturating concentration of one of the substrates, in the present case GABA, in each instance, in the presence of a saturating concentration of the second substrate namely α-ketoglutarate. Thus, it is possible to discover the activity rate of GABA T in relation to the concentration of GABA and in this way, to determine the affinity of GABA T for GABA. […]
This constant is expressed in units of concentration, in the present case, in m mol per ml and can be determined by plotting all the curves corresponding to 1/v = f (I) for a saturating concentration of GABA and for different limiting concentrations of GABA. […]

[2] = in vivo; details: ip, mouse, intraperitoneal route, read-out: LDO, maximum tolerated dose (M.T.D.), highest dose which provokes no deaths
Experimental: Acute toxicity was determined on the mouse. For this purpose, a dose of the compound to be tested was administered to batches of 5 mice, by intraperitoneal route, so that each batch received a higher dose than the preceding batch.

Compound: CC(C)CC(=O)O [Compound D, 3-methyl-butanoic acid]
- activity as GABA T inhibitor compared with sodium di-n-propylacetate [1]: more active
- MTD [2]: > 400 mg/kg
